Laboratory results: PubChem BioAssay AID1035470 (Broad Institute, 2014)
The campaign covered roughly 1,800 compounds. Fewer than 10 were called active. About 16% were inconclusive and are not listed.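 Rule for the calls: active = compound lowering the normal-ribosome reporter at least twice as much as the humanized-ribosome reporter, growth loss under a set limit; inconclusive = no clear call, values can overlap the other calls; inactive = the rest.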 Only a part is listed here, and it is no random draw. Potency and affinity values are given separately.

Test: growth inhibition of wild-type GFP E. coli versus G2058-humanized strain, dose response, G2058 mutant RFP vs wild-type GFP, cherry-pick, two tests (AID 1035470)
Conditions: E. coli WT-GFP vs G2058-humanized RFP, fluorescence, 24 h; at 50 µM (top of the series)

Activity change, negative = inhibition, inactive:
COc1ccc(CC(=O)Nc2cc(S(=O)(=O)Nc3ccc(OC)cc3)ccc2OC)cc1 -11.4, Fc1ccc(-c2nc3ccc(Cl)cn3c2Cc2cccc(Cl)c2)cc1 -18, O=C(Nc1cc(F)ccc1F)N1CCCCN2[C@@H](CO)[C@H](c3ccc(-c4ccncc4)cc3)[C@@H]2C1 -2.55, CC(=O)Nc1ccc(CNc2nc(NCCN(C)C)nc3cc(-c4ccccc4)sc23)cc1 -11.1, Cc1ccc(-c2c[n+](CC(=O)OCc3ccccc3)c3n2CCC3)cc1 -9.4, C#CCOc1nc(Nc2cccc([N+](=O)[O-])c2)nc(OCC#C)n1 -6.99, Cc1ccc(N2C(=S)NC3c4cc(Cl)ccc4OC2(C)C3C(=O)N(C)C)cc1 (stereo not drawn) -11.8, COc1ccc(C(=O)C[n+]2ccc3c(c2)nc(-c2cc(OC)c(OC)cc2OC)n3C)cc1 -22.3, Cc1cccc(-c2ccc([C@H]3[C@@H](CO)N4CCCCN(S(=O)(=O)c5ccccc5C)C[C@@H]34)cc2)c1 -4.73, COc1ccc(C(C)=O)cc1COc1ccc(Cl)c(C)c1 -10.3, COc1ccccc1NC(=O)N1CCCCN2[C@@H](CO)[C@H](c3ccc(C#Cc4ccccc4)cc3)[C@@H]2C1 -7.55, Fc1ccccc1C1CCN(Cc2nc(COc3ccccc3)no2)C1 (stereo not drawn) -0.998, Cc1ccccc1S(=O)(=O)c1cc2ccccc2nc1N -9.42, COc1ccccc1N1CCN(Cc2ccc(OC)c3ccccc23)CC1 -16.8, Cc1ccc(S(=O)(=O)N2CCCCC2C(=O)N2CCN(c3ccccc3F)CC2)cc1 (stereo not drawn) -17.8, Nc1ccccc1Nc1ccc([N+](=O)[O-])cc1[N+](=O)[O-] -12.1, Cc1cc(C(=O)Nc2ccc(Cl)cc2)c(C)n1Cc1cccs1 -8.25, Cc1c(Cc2ccccc2)sc(NC(=O)Cc2ccccc2)c1C(N)=O -0.013, COC(=O)CN1C(=S)N(c2ccc(F)cc2)C(=O)C1CC(=O)Nc1ccc(F)cc1 (stereo not drawn) -13.5, Cc1occc1-c1nnc(SCC(=O)Nc2nc(-c3ccccc3)cs2)o1 -16, O=S(=O)(Cc1ccco1)Cc1nc(-c2ccc(Cl)cc2)cs1 -9.02, CC1Cc2ccccc2N1C(=O)CN1C(=O)NC(C)(CCc2ccccc2)C1=O (stereo not drawn) -22.1, CCOC(=O)C1NN=C(C(=O)c2ccccc2)C1c1ccc(OC)cc1 (stereo not drawn) -4.52, O=C(COc1cccc2c1CCN(Cc1ccc(Br)cc1)C2=O)N1CCOCC1 -5.18, Cc1ccc(C(=O)Nc2cccc3[nH]c(C(F)(F)F)nc23)cc1 -14, Cc1nn(-c2ccc(N3CCCCC3)nn2)c(C)c1CCC(=O)Nc1ccc(F)cc1 -9.05, Cc1noc(C)c1NC(=O)Nc1ccc2c(c1)C(=O)N([C@@H](C)CO)C[C@H](C)[C@@H](CN(C)C(=O)Nc1ccc3c(c1)OCO3)OCCCC[C@H](C)O2 17.1, Cc1cc(C)n(CC(O)COc2ccc3ccccc3c2)n1 (stereo not drawn) -1.71, O=C(Nc1cc(S(=O)(=O)N2CCOCC2)ccc1N1CCOCC1)c1ccc([N+](=O)[O-])s1 -15.8, Cc1ccccc1CSc1nnc(-c2ccccn2)n1C -10.4, O=C(Nc1cccc(S(=O)(=O)c2cccc(NC(=O)C3CC3)c2)c1)C1CC1 -2.94, CC(C)OCCCNC(=O)c1ccc(CS(=O)(=O)c2cccc(C(F)(F)F)c2)o1 -6.78, Cc1ccc(C)c(N2CCN(C(=O)CCS(=O)(=O)c3ccc4c(c3)oc(=O)n4C)CC2)c1 -12.4, C[C@@H]1CN([C@@H](C)CO)C(=O)CCCn2nncc2CO[C@H]1CN(C)C(=O)Nc1cccc(C(F)(F)F)c1 -15.5, CC(NC(=O)c1c(N)[nH]c(C(=O)c2ccccc2)c1-c1ccccc1Br)c1cccc2ccccc12 (stereo not drawn) 1.52, COc1cc(OC)cc(-c2nc3ccccc3c(=O)n2OC(=O)c2ccc(C)c(C)c2)c1 3.7, Nc1nc(-c2cc(-c3ccccc3)no2)cs1 -8.67, COc1ccc(C#Cc2ccc([C@H]3[C@@H](CO)N4CCCCN(C(=O)Nc5cccc(F)c5)C[C@H]34)cc2)cc1 4.7, COc1cc(NC(=O)c2ccc(Cl)cc2)c(OC)cc1NC(=O)CN1CCCCC1 -7.91, COc1cccc(NC2=Nc3cccc4cccc2c34)c1 -20.4, CC1(CCC(=O)N2CCCC(N3CCN(c4ccc(F)cc4)CC3)C2)CC1 (stereo not drawn) -9.89, O=C(O)CC(CC(=O)Nc1ccc2ccccc2n1)c1ccccc1 (stereo not drawn) -5.06, CN(Cc1ccccc1NS(=O)(=O)c1ccc(Cl)cc1)C1CCCCC1 -10.1, CCn1c(SCC(=O)Nc2ccc(OC)cc2)nc2nc3c(cc2c1=O)CCCC3 -19, CCCOC(=O)c1ccc(NC(=O)c2nc3nc(C)cc(C)n3n2)cc1 -5.92, COc1cc2c(cc1OC)C1(C)N(CC2)C(C(C)=O)=NN1c1ccc(Cl)cc1 (stereo not drawn) -8.26, C[C@@H]1CCCCO[C@@H](CN(C)C)[C@@H](C)CN([C@H](C)CO)C(=O)c2cc(NC(=O)Nc3cccc4ccccc34)ccc2O1 25, C[C@@H]1CN([C@@H](C)CO)C(=O)c2cc(NS(=O)(=O)c3ccccc3)ccc2O[C@@H]1CN(C)Cc1ccc(C(=O)Nc2ccccc2N)cc1 -3.62, NS(=O)(=O)c1cc(C(=O)OCC(=O)Nc2ccccc2[N+](=O)[O-])ccc1Cl -3.46, COc1ccccc1-c1noc2ncnc(Nc3cccc(C)c3C)c12 -17.8, Cc1cc(Br)cn2c(Cc3cccc(Cl)c3)c(-c3ccco3)nc12 -8.14, CN(C)c1ccc(-c2nnn(CC(=O)Nc3ccccc3N3CCOCC3)n2)cc1 -13, CC1CCCC(NC(=O)COC(=O)[C@@H]2CC(O)CN2S(=O)(=O)c2ccc3c(c2)OCCO3)C1C (stereo partly drawn) 1.72
